The campaign covered roughly 330,000 compounds. About 7,700 (2.3%) were called active. This list was built around the results that the source calls inconclusive (neither active nor inactive); the mix of calls is not that of the screen. Calls come from the whole dose curve; as a rule, active = well fitted inhibition curve with a large enough effect; inconclusive = small, poorly fitted or top-dose-only effect, or effect the other way; inactive = flat fitted curve, though single readings scatter. A potency beside an inconclusive call is a rough fit, not a confirmed value.
Test: qHTS screen for small molecules that inhibit ELG1-dependent DNA repair in human embryonic kidney (HEK293T) cells expressing luciferase-tagged ELG1; note: nearly all actives have a fitted effect of over 55% in size
Settings: HEK293T ELG1-luciferase reporter, luminescence, 16 h, DNA damage induced by 5-fluorouridine; activity change, negative = inhibition: at 46.1 µM (top of the series)
In short: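 5-Fluorouridine DNA damage + compound/DMSO, 2,000 cells/well, 16 h, 37 °C/5% CO2. ONE-Glo, 30 min RT, luminescence. Readout = decrease in reporter signal.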
% is set by controls: 0 for no effect and ±100 for the full control effect; potency is the fitted concentration of half-maximal effect.

Compound | Potency | activity change, negative = inhibition
CC(=O)N1c2c(cc(Br)cc2S(=O)(=O)N2CCN(c3ccccn3)CC2)CC1C (configuration not stated) | inconclusive: 25.9 µM [inhibitor, partial curve] | 
CCC(C)c1ccc(NC(=O)Nc2cccnc2)cc1 (configuration not stated) | inconclusive: 9.2 µM [activator, partial curve] | 
CC(Oc1ccc(Cl)cc1Cl)C(=O)OCn1nnc2ccccc2c1=O (configuration not stated) |  | inactive: -5.5%
CCC(=O)Nc1ccc(C(=O)N/N=C/c2cccnc2)cc1 |  | inactive: 12.7%
Cc1cccc(/C=c2\s/c(=C\C(=O)C(C)(C)C)[nH]c2=O)c1 | inconclusive: 16.4 µM [inhibitor, single point] | 
COc1ccc(N2CCN(C(=O)c3cc(=O)c4cc(Cl)ccc4o3)CC2)cc1 | inconclusive: 25.9 µM [inhibitor, partial curve, poor fit] | 
COc1ccc(S(=O)(=O)NCC2CCCN(C(=O)CSC)C2)cc1 (configuration not stated) |  | inactive: 9.96%
O=C(NCC1CCN(Cc2ccccc2F)CC1)C1CCCN(c2ncnc3c2nc2n3CCCCC2)C1 (configuration not stated) | active: 7.3 µM | 
O=C(c1ccco1)N1CCC(c2nc3c(nnn3Cc3ccc(F)cc3)c(=O)[nH]2)CC1 | inconclusive: 25.9 µM [inhibitor, partial curve, poor fit] | 
CCC1CCCCN1CCNC(=O)C1CCN(S(=O)(=O)c2cccc3nsnc23)CC1 (configuration not stated) |  | inactive: 21%
Cc1cc(C)cc(OCC(=O)NCC2CCCO2)c1 (configuration not stated) | inconclusive: 18.4 µM [activator, single point] | 
COc1ccc(NC(=O)c2ccc(C)cc2)cc1 | inconclusive: 2.59 µM [activator, full curve] | 
Cc1cc(C)n(C(C)CC(=O)Nc2ccc3c(c2)OCCO3)n1 (configuration not stated) | inconclusive: 16.4 µM [activator, partial curve] | 
CN1CCN(c2ccc(NS(=O)(=O)c3ccc(Cl)cc3)cn2)CC1 | inconclusive: 20.6 µM [inhibitor, partial curve, poor fit] | 
Cc1cccc(NC(=O)CCNC(=O)c2ccc(Br)cc2)c1 | inconclusive: 14.6 µM [activator, partial curve] | 
O=C(CSc1n[nH]c(=O)n1C1CC1)Nc1ccc(Cl)cc1Cl | inconclusive: 6.51 µM [activator, full curve] | 
COc1ccc(OC)c(-n2c(-c3ccc(O)cc3O)n[nH]c2=S)c1 | inconclusive: 20.6 µM [inhibitor, single point] | 
COc1ccc(-n2nc(C(=O)O)cc2-c2ccccc2)cc1 |  | inactive: 0.782%
COc1ccccc1C(=O)NNC(=S)Nc1ccccc1 |  | inactive: -12.2%
Fc1ccc(/C=N/Nc2ccccn2)cc1 | inconclusive: 13 µM [activator, partial curve] | 
CCN(Cc1ccccc1)S(=O)(=O)c1ccccc1Br |  | inactive: -4%
Cc1[nH]c(C)c2c(=O)n(Cc3ccc(Cl)cc3)ncc12 | inconclusive: 2.31 µM [activator, partial curve] | 
Cc1ccc(Sc2c(C=O)c3ccccc3n2C)cc1 | active: 5.8 µM | 
Cc1ccc(C)c(-n2sc3ccc(F)cc3c2=O)c1 |  | inactive: -25.8%

Compound | Potency | activity change, negative = inhibition
Cc1ccc(C(=O)Nc2ncccc2C)cc1S(=O)(=O)N1CCCCC1 | inconclusive: 25.9 µM [activator, single point] | 
CC(C)(C)OC(=O)NCc1ccc(NC(=O)c2nc[nH]c2C(=O)NCCCCCCNC(=O)c2[nH]cnc2C(=O)Nc2ccc(CNC(=O)OC(C)(C)C)cc2)cc1 | active: 2.31 µM | 
N=c1n(Cc2ccccc2)c2ccccc2n1CC(O)c1ccccc1 (configuration not stated) | inconclusive: 18.4 µM [inhibitor, partial curve, poor fit] | 
CC(C)(C)OC(=O)N1CCC[C@H]1C(=O)N/N=C/c1cccc2cccnc12 |  | inactive: -4.25%
O=C(CSc1ccccc1[N+](=O)[O-])NC1CCS(=O)(=O)C1 (configuration not stated) |  | inactive: 15%
O=C1C=C(Nc2ccc(Cl)cc2)C(=O)N1c1ccc(Cl)cc1 | inconclusive: 20.6 µM [activator, partial curve, poor fit] | 
CCCCNC(=O)Nc1cc(C)on1 | inconclusive: 23.1 µM [activator, partial curve, poor fit] | 
O=C(O)CCC(=O)N1CCN(c2ccccn2)CC1 |  | inactive: -16.5%
COc1cc2oc(-c3ccc(O)cc3)cc(=O)c2c(O)c1OC | inconclusive: 9.2 µM [activator, partial curve, poor fit] | 
Cc1cc(C(F)(F)F)nn1Cc1n[nH]c(=S)n1-c1ccc(Cl)cc1 |  | inactive: -3.08%
Cc1ccccc1OCC1Cn2c(nc3c2c(=O)n(C)c(=O)n3C)O1 (configuration not stated) | inconclusive: 16.4 µM [inhibitor, partial curve] | 
COc1cc(Nc2nc(-c3ccccc3)c3cc(C)ccc3n2)cc(OC)c1OC | inconclusive: 14.6 µM [inhibitor, partial curve] | 
CN(Cc1cn(C)nc1-c1ccc(Oc2ccccc2)cc1)CC1COCCO1 (configuration not stated) | inconclusive: 23.1 µM [inhibitor, single point] | 
Cc1noc(C)c1COc1ccc(C(=O)NNC(=O)c2ccccc2F)cc1 |  | inactive: -11.4%
CCN1c2ccccc2NC2N=C(OC)C(c3ccccc3)C21 (configuration not stated) | inconclusive: 16.4 µM [inhibitor, partial curve] | 
Cc1cc(/C=C2\SC(=O)N(C)C2=O)c(C)n1-c1ccc(O)cc1 | inconclusive: 2.59 µM [activator, partial curve] | 
CC1(C)O[C@@H]2C[C@H]3[C@@H]4CCC5=CC(=O)C=C[C@]5(C)[C@@]4(F)[C@@H](O)C[C@]3(C)[C@]2(C(=O)CO)O1 | inconclusive: 0.116 µM [activator, full curve, poor fit] | 
COc1ccc(C2=NOC(C(=O)NCc3ccc(F)cc3)C2)cc1OC (configuration not stated) |  | inactive: 10.2%
CC1CC/C(=N/Nc2ccccc2)C(=O)N1 (configuration not stated) | inconclusive: 16.4 µM [activator, partial curve] | 
CC1CCc2nc(N)c(C#N)c(-c3ccncc3)c2C1 (configuration not stated) |  | inactive: 1.92%
COc1cc(C(=O)NCc2cccc3ccccc23)ccc1OCc1ccccc1 | inconclusive: 23.1 µM [inhibitor, single point] | 
CC(C)CCn1cnc2c(oc3nc4c(cc32)CCCC4)c1=O | inconclusive: 2.31 µM [activator, partial curve] | 
O=C(Cn1nnc(-c2ccccc2Cl)n1)Nc1cccc(S(=O)(=O)N2CCCC2)c1 | active: 23.1 µM | 
COc1cccc(CNc2nc(-c3cccnc3)nc3ccccc23)c1 | inconclusive: 29.1 µM [inhibitor, single point] | 

Ordered by length of the SMILES (low to high): some entries from above.
Compound | Potency | activity change, negative = inhibition
COc1cc2oc(-c3ccc(O)cc3)cc(=O)c2c(O)c1OC | inconclusive: 9.2 µM [activator, partial curve, poor fit] | 
Cc1ccccc1OCC1Cn2c(nc3c2c(=O)n(C)c(=O)n3C)O1 (configuration not stated) | inconclusive: 16.4 µM [inhibitor, partial curve] | 
CN(Cc1cn(C)nc1-c1ccc(Oc2ccccc2)cc1)CC1COCCO1 (configuration not stated) | inconclusive: 23.1 µM [inhibitor, single point] | 
Cc1cc(/C=C2\SC(=O)N(C)C2=O)c(C)n1-c1ccc(O)cc1 | inconclusive: 2.59 µM [activator, partial curve] | 

Additional structures follow:

Compound | Potency | activity change, negative = inhibition
O=C(CSc1nnc(NC(=O)c2ccc(F)cc2)s1)NC1CCCC1 | inconclusive: 9.2 µM [activator, partial curve] | 
CC1CC(C)CN(C(=S)Nc2ccc3nc4n(c(=O)c3c2)CCCCC4)C1 (configuration not stated) | inconclusive: 18.4 µM [inhibitor, partial curve, poor fit] | 
Cc1cc(C)nc(/N=C(\N)Nc2ccc(S(=O)(=O)Nc3nc(C)cc(C)n3)cc2)n1 |  | inactive: 5.41%
COc1cccc(/C=C/C(=O)OCC(=O)Nc2cccc(S(=O)(=O)N(C)C)c2)c1 |  | inactive: 8.77%
COc1cc(C=O)ccc1OCCCOc1ccccc1[N+](=O)[O-] | inconclusive: 20.6 µM [activator, partial curve] | 
O=C(CN1C(=O)c2cccc([N+](=O)[O-])c2C1=O)OCC(=O)N1CCCCC1 | inconclusive: 5.17 µM [activator, single point] | 
O=C(NCc1ccc(Cl)cc1)c1cc2ccccn2n1 | inconclusive: 18.4 µM [activator, single point] | 
CCOc1ccccc1N1CCN(C(=O)c2ccncc2)CC1 |  | inactive: 12.5%
CC(=O)c1cn(CCOc2ccc(F)cc2)c2ccccc12 |  | inactive: -29.4%
Cc1[nH]n(-c2nc(-c3ccc(Cl)cc3)cs2)c(=O)c1N=Nc1ccc(O)cc1 | active: 4.11 µM | 
CCOC(=O)/C(C#N)=C\c1ccc(N2CCN(C/C=C/c3ccccc3)CC2)cc1 | inconclusive: 32.6 µM [activator, partial curve, poor fit] | 
O=c1/c(=C\c2cc([N+](=O)[O-])cc([N+](=O)[O-])c2O)sc2nc3ccccc3n12 |  | inactive: -15.6%
COc1ccc(OC)c(Nc2nc3ccc(C)cc3n3cnnc23)c1 | active: 8.2 µM | 
O=C(Nc1ccccc1F)c1cnccn1 | inconclusive: 16.4 µM [activator, single point] | 
O=C(CCc1ccccc1)N/N=C/c1cccc(O)c1 |  | inactive: -8.85%
CC1CCN(S(=O)(=O)c2cc(C(=O)Nc3ccccn3)ccc2Br)CC1 | inconclusive: 29.1 µM [inhibitor, single point] | 
COc1cccc2sc3cc(NCc4ccc5c(c4)OCO5)ccc3c(=O)c12 | inconclusive: 32.6 µM [inhibitor, partial curve, poor fit] | 
CC1CCc2c(C(=O)NCC3CCCO3)csc2C1 (configuration not stated) | inconclusive: 25.9 µM [activator, single point] | 
COc1ccc(/C=C\c2nc(=O)c3ccccc3o2)cc1 | inconclusive: 20.6 µM [activator, partial curve] | 
COc1ccccc1Nc1nnc(SCC(=O)N2CCCC2=O)s1 |  | inactive: 9.51%
Cc1cc(NC(=O)C(Cl)c2ccccc2)no1 (configuration not stated) |  | inactive: -19.3%
O=C1c2ccccc2S(=O)(=O)N1CC1CC(c2ccccc2)=NO1 (configuration not stated) | inconclusive: 10.3 µM [activator, partial curve] | 
COC(=O)c1sccc1NC(=O)/C=C/c1c(Cl)cccc1Cl | inconclusive: 18.4 µM [activator, single point] | 
CCOC(=O)c1cnc(-n2nc(C)cc2C)nc1NCc1ccccc1 | inconclusive: 2.24 µM [inhibitor, partial curve, poor fit] | 

Source: PubChem BioAssay AID504467 (National Center for Advancing Translational Sciences (NCATS), 2011)
